# For some assays here: A weaker result is weaker than the reference pair of the same experiment. Protein sequences can lack the tags named with them. For some assays here: For at least one entry, the source does not settle the construct or the ends of the probe. For some assays here: No signal at the amounts used counts as a negative.
# How the values were obtained:
# NNDP52 (Human) = target: T1, NNDP52 (Human) (UniProt Q13137); test: fluorescence titration; conditions: much lower affinity, recombinant protein, residues 1-190, protein details: His-tag (pET151)
# T1 sequence (looked up): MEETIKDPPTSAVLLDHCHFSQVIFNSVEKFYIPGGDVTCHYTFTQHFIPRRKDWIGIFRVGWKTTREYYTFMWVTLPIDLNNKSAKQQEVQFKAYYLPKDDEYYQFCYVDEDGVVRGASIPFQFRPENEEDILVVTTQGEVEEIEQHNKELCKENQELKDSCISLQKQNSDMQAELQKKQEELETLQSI
# NDP52-FL (Human) [1] = target: T2, NDP52-FL (Human) (UniProt Q13137); test: competition with a labelled probe; conditions: against FAM-ds40; EMSA: 50 mM Tris-HCl pH 7.5, 50 mM NaCl, 3 mM MgCl2, 5 min; temperature not stated; recombinant protein; residues 1-446; protein details: His-tag (pET151); single-stranded DNA
# T2 sequence (looked up): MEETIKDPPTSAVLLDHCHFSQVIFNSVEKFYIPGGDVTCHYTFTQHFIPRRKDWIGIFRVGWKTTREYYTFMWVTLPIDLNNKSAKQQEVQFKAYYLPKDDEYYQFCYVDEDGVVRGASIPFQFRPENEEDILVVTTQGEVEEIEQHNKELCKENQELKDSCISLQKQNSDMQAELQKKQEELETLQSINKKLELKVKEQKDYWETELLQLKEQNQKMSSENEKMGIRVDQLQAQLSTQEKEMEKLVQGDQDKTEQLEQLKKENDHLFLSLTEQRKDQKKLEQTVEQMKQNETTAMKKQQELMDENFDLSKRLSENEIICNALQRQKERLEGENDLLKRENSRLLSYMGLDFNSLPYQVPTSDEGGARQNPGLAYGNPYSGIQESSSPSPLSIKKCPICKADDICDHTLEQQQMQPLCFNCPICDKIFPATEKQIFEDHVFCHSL
# CNDP52 (Human) = target: T3, CNDP52 (Human) (UniProt Q13137); test: AFM; conditions: PLL, clustering around DNA; recombinant protein; residues 365-446; protein details: His-tag (pET151)
# T3 sequence (looked up): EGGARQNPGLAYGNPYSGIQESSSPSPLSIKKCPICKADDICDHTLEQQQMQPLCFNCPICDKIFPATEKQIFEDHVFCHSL
# NDP52-FL (Human) [2] = target: T2, NDP52-FL (Human); test: AFM; conditions: magnesium buffer or poly-L-ornithine, prefers DNA ends; recombinant protein; residues 1-446; protein details: His-tag (pET151)
sequence,measurement,setting,value
TTAGTTGTTCTCTGG (double strand) [ds15],binding result,NNDP52 (Human); label: 3' FAM (called FITC in Methods) on strand 1,binds more weakly
TTAGTTGTTCGTAGTGCTCGTCTGGCTCTGGATTACCCGC [ssDNA competitor (40 bases)],binding result,NDP52-FL (Human) [1],no binding
TTAGTTGTTCGTAGTGCTCGTCTGGCTCTGGATTACCCGC (double strand) [ds40],binding result,NNDP52 (Human),binds more weakly
TATGTTGTGTTTTACAGTATTATGTAGTCTGTTTTTTATGCAAAATCTAATTTAATATATTGATATTTATATCATTTTACGTTTCTCGTTCAGCTTTTTTATACTAACTTGAGCGAAACGGGAAGGGTTTTCACCGATATCACCGAAACGCGCGAGGCAGCTGTATGGCGAAATGAAAGAACAAACTTTCTTGTACGCGGTGGTGAGAGAGAGAGAGAGATACGACTACTATCAGCCGGAAGCCTATGTACCGAGTTCCGACACTTTCATTGAGAAAGATGCCTCAGCTCTGTTACAGGTCACTAATACCATCTAAGTAGTTGATTCATAGTGACTGCA (double strand) [ds339],binding result,CNDP52 (Human),binds
same,binding result,NDP52-FL (Human) [2],binds

# From article PMC10195817, “Autophagy receptor NDP52 alters DNA conformation to modulate RNA polymerase II transcription” (Nature Communications, 2022)
